# No constants are given. Whether binding was seen depends on the method and setting. Binding seen in cells or lysates may run through a third protein. A result given as binding can be weak or reduced; the word gives no strength.
# Protein sequences, listed by entry. Tags and fused reporters are not part of them. Lines headed by an entry give the natural chain unless they say otherwise; changes in a name come on top.
# UniProt P08588: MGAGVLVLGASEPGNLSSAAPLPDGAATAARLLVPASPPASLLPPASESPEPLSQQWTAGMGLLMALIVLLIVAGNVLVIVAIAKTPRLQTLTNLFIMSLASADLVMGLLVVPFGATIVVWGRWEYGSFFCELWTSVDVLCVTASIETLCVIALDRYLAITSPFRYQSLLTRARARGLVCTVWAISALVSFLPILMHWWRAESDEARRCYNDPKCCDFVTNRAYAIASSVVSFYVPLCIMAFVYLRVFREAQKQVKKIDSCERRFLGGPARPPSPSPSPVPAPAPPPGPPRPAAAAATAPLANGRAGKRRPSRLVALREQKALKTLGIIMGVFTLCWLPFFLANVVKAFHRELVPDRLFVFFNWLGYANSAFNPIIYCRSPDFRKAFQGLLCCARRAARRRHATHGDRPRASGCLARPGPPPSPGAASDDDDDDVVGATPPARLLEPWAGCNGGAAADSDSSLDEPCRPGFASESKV
# Biological target: ADRB1Δ3rdloop^b, Cerulean-tagged (human) (UniProt P08588)
# Test: FRET or BRET; receptor-arrestin FRET in single living HEK293 cells co-transfected with ADRB1-Cer constructs and YFP-ARRB2; superfused with FRET buffer (137 mM NaCl, 4.5 mM KCl, 10 mM HEPES, 2 mM CaCl2, 2 mM MgCl2, pH 7.4) or 10 μM norepinephrine, room temperature; YFP/Cer ratio; also 0.1 μM and 1 μM norepinephrine (S3 Fig)
substance,measurement,value
YFP-β-arrestin2 (from UniProt P32121 1-409),binding,binds

# Source: publication PMC5417508
